Data taken from article PMC5993806.
Results are given in words; binding and its absence hold for the method and conditions named. In cells and extracts the contact can be indirect. A result given as binding can be weak or reduced; the word gives no strength. For part of these data: Sequences can lack the tags named with a protein.

Sequences of proteins named here, by UniProt entry; tags and fusion partners are left off. A change or cut given only in a name is not applied to a line headed by its entry.
UniProt Q9Y3Z3: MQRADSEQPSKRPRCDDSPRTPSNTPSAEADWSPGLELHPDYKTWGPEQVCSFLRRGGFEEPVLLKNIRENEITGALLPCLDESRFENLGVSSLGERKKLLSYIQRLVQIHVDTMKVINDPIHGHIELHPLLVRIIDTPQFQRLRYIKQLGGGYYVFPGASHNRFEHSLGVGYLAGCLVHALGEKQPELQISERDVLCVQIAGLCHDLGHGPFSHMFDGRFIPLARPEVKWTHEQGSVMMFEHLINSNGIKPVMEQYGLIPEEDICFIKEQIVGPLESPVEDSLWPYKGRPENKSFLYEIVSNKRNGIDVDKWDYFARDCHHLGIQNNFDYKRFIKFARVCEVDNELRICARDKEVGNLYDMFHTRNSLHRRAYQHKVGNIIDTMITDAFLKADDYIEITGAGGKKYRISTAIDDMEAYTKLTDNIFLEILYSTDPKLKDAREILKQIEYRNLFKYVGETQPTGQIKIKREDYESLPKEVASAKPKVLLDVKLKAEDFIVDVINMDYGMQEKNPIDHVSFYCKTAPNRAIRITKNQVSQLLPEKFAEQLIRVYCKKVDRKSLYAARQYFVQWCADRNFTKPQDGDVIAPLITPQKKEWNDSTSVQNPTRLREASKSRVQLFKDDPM
UniProt Q15172: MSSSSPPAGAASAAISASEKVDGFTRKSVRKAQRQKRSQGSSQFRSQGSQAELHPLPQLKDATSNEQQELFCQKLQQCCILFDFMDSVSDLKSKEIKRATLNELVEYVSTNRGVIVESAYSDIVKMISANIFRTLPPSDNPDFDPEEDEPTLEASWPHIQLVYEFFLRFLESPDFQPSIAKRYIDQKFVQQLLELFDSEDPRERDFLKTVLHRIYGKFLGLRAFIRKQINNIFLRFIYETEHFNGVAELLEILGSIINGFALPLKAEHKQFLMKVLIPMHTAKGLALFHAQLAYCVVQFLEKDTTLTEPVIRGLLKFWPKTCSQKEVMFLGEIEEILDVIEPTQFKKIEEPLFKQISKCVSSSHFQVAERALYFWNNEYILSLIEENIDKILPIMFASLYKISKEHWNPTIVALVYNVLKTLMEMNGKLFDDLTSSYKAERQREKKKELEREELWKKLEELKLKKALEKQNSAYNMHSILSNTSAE
UniProt P67775: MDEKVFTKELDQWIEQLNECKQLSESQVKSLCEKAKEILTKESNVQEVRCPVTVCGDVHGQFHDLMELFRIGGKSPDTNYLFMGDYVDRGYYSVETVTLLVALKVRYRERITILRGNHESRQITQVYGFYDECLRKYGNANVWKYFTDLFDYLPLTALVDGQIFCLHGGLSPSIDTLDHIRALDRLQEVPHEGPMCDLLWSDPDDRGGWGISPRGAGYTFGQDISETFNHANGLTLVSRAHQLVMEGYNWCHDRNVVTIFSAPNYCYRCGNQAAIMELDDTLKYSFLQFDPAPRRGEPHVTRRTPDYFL

Experiments:
[1] = target: N-terminally FLAG-tagged SAMHD1 (human, wild type) (human) (UniProt Q9Y3Z3); test: co-IP
SAMHD1 R451E (human) = SAMHD1 R451E (human) (UniProt Q9Y3Z3); test: co-IP
SAMHD1 T592A (human) = SAMHD1 T592A (human) (UniProt Q9Y3Z3); test: co-IP
SAMHD1 T592E (human) = SAMHD1 T592E (human) (UniProt Q9Y3Z3); test: co-IP
[2] = target: GFP-tagged PP2A B56α subunit (UniProt Q15172); test: co-IP; GFP-trapping of GFP-tagged B-type subunits from transfected HEK293T cells; anti-PP2A C immunoblot of the retrieved complexes
[3] = target: T1, GFP-tagged PP2A PR72 subunit (UniProt Q06190); test: as above
T1 sequence: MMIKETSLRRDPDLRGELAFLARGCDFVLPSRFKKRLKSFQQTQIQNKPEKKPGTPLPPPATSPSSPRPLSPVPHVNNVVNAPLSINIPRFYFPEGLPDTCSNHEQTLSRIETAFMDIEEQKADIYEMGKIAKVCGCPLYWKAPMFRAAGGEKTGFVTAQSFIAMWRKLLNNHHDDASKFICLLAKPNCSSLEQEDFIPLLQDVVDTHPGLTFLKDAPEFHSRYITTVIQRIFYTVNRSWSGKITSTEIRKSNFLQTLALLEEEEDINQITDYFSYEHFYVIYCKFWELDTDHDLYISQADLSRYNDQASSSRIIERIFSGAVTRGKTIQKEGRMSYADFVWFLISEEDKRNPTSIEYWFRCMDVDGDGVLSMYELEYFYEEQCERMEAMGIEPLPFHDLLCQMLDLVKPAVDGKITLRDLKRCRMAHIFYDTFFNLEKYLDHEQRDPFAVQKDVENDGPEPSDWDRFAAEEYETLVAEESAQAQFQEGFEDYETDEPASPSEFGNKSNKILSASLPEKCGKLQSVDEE

Measured: binding

PP2A C subunit (from UniProt P67775) (enzyme)
binds: all assays above
